This note sets out measurements from patent US7964598B2 (The J. David Gladstone Institutes, priority 1995, dated 2011).

The data set concerns emulsion particles. Description: Control emulsion binding assays without compounds. The settings on record: second line headed Mean; n = 9. As for the experimental part:
Preparation of emulsion particles. Triolein (160 mg) and L-alpha-Phosphatidylcholine (40 mg) are combined and dried under nitrogen. After the addition of 8 mls of buffer (10 mM Tris, 100 mM KCl, 1 mM EDTA, pH 8.0), the mixture is sonicated in a water bath to obtain a heterogeneous mix of emulsion particles. The particles are harvested by ultracentrifugation (TLA 100.2 rotor, 30,000 rpm for 30 minutes) and the subsequent lipid cake is removed by tube slicing and resuspended in 100 μt 20 mM Phosphate Buffer (PB). Triolein and phospholipid content are measured and total emulsion particle concentration is determined.
Radiolabelling Freshly denatured and renatured Apolipoprotein E3 and E4 are radiolabelled using Bolton-Hunter Reagent [^125I] (ICN). Specific Activity is determined using Lowry method and Gamma 8000 counter.
Binding Affinity Assay. […] In glass tubes, 25 μg of protein (with iodinated tracer) was reduced with 1% β-mercaptoethanol. Two hundred and fifty μg of emulsion particles and 2.5 μl of compound (10 mM stock) were added and the final mixture was brought up to 250 μl with 20 mM phosphate buffer (PB). The reaction mixture was then incubated in a 37° C. water bath for 2 hours before being transferred to 1.5 ml ultracentrifuge tubes. […] These fractions were then combined with the respective half of the actual tube and counted using a Gamma-8000.

“apoE4: human apolipoprotein E4 isoform, also iodinated” showed a Mean of 88%.

Take “apoE3: human apolipoprotein E3 isoform, also iodinated”: the Mean is reported as 92%.
